The supplement of paper PMC11732987, “Enantioselective OTUD7B fragment discovery through chemoproteomics screening and high-throughput optimisation” (Communications Chemistry, 2025)
This is one part of the list. The data scatter; read single values as rough.

Chains of the proteins cited; added tags and fusions are not shown. Lines headed by an entry give the natural chain unless they say otherwise; changes in a name come on top. Residues count along the entry.
UniProt Q6ZRI6: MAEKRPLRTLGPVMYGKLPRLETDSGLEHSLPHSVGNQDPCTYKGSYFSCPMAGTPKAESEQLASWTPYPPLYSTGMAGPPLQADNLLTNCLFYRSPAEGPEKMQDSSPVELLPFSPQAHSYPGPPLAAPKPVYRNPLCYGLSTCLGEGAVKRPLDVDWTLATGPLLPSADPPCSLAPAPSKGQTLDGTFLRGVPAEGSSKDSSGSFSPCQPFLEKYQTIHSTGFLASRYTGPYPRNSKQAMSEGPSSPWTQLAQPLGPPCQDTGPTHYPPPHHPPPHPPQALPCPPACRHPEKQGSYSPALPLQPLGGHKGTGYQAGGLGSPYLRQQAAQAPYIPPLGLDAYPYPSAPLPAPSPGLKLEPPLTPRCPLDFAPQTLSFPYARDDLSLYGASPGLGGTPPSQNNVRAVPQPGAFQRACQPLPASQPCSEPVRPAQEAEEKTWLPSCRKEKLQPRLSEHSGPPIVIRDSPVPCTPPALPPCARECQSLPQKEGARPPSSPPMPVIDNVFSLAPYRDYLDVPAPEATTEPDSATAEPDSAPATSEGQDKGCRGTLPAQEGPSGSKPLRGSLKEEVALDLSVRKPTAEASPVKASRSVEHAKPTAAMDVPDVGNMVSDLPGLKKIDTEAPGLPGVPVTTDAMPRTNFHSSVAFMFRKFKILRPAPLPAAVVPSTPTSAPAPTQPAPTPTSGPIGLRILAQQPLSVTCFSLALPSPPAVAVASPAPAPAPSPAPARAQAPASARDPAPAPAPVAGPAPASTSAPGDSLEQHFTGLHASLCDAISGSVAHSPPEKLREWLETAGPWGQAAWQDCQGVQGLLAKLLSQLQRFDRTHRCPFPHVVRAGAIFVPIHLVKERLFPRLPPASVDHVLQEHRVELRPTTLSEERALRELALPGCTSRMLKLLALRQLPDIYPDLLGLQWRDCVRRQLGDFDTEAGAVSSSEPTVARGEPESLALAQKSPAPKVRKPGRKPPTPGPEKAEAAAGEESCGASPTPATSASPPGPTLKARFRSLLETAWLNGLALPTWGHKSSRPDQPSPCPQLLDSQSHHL
UniProt Q96RR4: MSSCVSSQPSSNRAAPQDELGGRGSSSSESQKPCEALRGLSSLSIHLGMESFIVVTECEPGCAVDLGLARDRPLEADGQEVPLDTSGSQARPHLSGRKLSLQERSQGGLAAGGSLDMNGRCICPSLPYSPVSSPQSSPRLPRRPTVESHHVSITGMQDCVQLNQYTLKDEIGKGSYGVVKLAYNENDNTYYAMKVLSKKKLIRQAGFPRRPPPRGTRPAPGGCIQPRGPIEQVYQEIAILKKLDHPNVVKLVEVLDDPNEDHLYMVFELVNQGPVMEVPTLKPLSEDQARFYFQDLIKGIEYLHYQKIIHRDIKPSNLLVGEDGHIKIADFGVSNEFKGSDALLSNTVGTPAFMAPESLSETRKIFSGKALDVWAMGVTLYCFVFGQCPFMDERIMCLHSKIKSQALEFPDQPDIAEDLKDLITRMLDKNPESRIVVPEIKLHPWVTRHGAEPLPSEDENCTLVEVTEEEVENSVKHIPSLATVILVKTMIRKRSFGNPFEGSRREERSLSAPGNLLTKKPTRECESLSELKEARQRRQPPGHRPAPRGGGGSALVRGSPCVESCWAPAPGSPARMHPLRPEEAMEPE
UniProt Q8N350, 178-202: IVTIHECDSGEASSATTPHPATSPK
UniProt Q9H3H3: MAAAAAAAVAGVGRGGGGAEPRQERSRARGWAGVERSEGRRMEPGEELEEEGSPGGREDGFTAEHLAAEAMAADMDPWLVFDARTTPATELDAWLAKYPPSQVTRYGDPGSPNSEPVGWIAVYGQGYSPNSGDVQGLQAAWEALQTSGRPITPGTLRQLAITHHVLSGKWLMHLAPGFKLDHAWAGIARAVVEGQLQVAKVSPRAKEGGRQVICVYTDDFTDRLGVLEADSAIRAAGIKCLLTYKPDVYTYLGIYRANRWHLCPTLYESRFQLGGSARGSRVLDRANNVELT
UniProt Q8N8R5: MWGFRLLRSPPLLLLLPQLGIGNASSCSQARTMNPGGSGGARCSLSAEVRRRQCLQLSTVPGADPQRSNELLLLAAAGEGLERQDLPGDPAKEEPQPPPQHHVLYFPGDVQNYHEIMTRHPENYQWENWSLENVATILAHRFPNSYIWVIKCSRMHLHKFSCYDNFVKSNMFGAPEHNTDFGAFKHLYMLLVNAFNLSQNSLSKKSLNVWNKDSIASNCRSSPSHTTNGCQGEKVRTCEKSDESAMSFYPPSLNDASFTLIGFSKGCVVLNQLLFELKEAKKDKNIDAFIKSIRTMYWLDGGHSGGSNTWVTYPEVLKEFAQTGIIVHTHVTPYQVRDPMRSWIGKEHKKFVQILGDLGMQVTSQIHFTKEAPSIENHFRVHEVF
UniProt Q8N4T8: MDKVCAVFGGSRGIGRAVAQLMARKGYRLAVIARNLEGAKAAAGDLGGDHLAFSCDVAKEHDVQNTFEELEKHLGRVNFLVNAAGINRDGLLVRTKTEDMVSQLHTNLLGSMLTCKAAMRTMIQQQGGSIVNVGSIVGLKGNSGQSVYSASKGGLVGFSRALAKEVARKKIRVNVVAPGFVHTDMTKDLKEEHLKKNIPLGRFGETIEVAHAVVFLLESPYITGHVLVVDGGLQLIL
UniProt Q49AR2, 182-204: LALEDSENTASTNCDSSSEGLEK
UniProt O43439: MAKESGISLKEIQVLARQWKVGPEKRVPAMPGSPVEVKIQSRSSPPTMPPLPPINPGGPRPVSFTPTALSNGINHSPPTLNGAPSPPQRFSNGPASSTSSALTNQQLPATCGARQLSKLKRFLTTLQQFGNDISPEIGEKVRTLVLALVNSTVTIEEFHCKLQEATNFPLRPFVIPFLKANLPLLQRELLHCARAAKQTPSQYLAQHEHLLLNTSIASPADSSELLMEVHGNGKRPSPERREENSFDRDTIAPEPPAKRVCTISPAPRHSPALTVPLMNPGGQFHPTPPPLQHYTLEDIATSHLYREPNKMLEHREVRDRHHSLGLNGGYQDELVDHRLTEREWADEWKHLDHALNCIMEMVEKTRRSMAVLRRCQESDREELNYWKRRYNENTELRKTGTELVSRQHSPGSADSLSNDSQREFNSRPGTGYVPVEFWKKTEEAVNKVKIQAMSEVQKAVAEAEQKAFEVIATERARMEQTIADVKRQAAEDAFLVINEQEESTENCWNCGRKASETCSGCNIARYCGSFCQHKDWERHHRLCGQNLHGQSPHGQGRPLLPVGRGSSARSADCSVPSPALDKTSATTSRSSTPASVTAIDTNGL
UniProt O14523: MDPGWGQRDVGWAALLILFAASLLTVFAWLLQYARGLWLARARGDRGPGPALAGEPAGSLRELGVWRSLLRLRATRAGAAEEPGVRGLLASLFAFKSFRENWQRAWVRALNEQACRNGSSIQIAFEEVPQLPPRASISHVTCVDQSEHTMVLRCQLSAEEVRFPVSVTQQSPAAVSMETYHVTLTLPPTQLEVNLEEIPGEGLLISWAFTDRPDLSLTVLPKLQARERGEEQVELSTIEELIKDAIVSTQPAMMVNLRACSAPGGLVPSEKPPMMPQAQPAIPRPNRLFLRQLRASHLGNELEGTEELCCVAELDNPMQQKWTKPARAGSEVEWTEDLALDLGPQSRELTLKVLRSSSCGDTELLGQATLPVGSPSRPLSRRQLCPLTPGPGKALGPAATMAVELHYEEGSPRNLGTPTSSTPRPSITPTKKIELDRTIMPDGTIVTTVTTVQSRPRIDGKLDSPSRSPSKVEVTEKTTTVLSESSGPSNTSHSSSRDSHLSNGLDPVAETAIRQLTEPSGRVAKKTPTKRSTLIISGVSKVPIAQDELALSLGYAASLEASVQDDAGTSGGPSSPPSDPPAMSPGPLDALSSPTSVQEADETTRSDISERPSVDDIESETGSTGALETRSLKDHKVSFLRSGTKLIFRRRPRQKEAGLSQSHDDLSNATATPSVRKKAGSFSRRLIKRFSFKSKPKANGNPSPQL
UniProt Q86Y37: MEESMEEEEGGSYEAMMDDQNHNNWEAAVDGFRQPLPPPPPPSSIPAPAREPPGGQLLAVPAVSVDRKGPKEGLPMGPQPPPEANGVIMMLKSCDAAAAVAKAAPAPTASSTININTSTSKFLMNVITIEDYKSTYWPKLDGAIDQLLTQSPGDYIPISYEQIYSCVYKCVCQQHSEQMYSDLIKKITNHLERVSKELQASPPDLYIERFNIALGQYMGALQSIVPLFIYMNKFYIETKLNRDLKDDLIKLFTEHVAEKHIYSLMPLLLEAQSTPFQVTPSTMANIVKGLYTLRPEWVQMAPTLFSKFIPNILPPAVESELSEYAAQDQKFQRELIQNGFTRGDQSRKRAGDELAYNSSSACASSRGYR
UniProt Q9NPI1: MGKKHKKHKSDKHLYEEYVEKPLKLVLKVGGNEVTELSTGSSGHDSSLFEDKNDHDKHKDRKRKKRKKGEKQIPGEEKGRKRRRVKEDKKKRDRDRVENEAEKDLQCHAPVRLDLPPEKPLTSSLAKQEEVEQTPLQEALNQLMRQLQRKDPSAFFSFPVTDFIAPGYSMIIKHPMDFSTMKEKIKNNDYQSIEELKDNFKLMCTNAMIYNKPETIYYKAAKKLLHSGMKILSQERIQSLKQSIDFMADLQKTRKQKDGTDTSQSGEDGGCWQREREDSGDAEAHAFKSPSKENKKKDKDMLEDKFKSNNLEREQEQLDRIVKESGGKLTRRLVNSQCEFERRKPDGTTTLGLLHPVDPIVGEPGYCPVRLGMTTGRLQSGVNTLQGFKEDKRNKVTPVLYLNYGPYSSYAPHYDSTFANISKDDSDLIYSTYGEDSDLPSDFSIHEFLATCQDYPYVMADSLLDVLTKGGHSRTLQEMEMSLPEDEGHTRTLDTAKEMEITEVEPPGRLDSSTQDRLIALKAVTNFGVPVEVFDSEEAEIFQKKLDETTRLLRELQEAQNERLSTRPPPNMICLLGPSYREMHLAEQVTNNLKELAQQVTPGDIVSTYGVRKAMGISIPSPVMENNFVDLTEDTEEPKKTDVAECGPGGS
UniProt P35613: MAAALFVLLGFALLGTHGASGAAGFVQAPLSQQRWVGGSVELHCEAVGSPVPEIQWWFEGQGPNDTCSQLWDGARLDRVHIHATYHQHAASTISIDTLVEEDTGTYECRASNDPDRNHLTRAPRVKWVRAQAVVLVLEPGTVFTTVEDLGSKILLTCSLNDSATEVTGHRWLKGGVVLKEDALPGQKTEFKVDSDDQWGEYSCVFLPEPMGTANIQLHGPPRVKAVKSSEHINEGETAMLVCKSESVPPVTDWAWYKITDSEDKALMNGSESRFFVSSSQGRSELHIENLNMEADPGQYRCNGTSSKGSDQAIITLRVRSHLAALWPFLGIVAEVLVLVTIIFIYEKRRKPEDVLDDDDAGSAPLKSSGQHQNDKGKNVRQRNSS
UniProt P47756, whole entry, looked up: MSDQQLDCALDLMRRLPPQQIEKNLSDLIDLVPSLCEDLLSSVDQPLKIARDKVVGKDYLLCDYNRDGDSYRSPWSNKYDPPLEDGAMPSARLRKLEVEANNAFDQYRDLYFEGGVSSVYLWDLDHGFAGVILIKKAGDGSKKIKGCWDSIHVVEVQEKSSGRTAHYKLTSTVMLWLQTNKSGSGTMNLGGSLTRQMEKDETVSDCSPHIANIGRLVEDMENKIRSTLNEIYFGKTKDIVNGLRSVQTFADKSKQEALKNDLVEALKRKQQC
UniProt Q86WA6: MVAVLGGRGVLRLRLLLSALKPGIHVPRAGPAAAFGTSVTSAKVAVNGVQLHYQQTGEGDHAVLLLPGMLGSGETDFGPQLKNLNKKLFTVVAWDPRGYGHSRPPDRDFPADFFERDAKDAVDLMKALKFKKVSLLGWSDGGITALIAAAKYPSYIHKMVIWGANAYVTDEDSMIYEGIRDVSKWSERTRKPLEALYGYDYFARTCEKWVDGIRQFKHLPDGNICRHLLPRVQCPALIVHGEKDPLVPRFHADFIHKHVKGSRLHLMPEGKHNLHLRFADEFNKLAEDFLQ

Columns and labels:
[1] = compound: ClCC(=O)N[C@@H]1CCCc2ccccc12; assay: log2 mean competition ratio of IA-DTB cysteine labelling (DMSO/compound) (log2 ratio); higher = stronger cysteine engagement by compound; details: treatment time: 4 h, cell line lysate: HEK293T
Experimental: (§1)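 IA-DTB competitive cysteine chemoproteomics in HEK293T RIPA lysate. Lysates were treated with compound 29 or 30 at 50 or 200 µM for 4 h, then IA-DTB (500 µM, 1 h), trypsin-digested, NeutrAvidin-enriched and analysed by diaPASEF. Competition ratio = intensity DMSO / intensity compound (n=4 treated, n=64 DMSO); binding: mean log2 CR ≥ 1 and p ≤ 0.05 plus QC filters. Target is the cysteine site.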

[2] = compound: ClCC(=O)N[C@H]1CCCc2ccccc12; assay: as above; details: treatment time: 4 h, cell line lysate: HEK293T
Experimental: as §1

Target | log2 mean competition ratio ([1]; 50 µM) | log2 mean competition ratio ([1]; 200 µM) | log2 mean competition ratio ([2]; 50 µM) | log2 mean competition ratio ([2]; 200 µM)
BPNT1 C42 | -0.21 | 0.0073 | -0.126 | 0.0131
C15orf39 C50 (UniProt Q6ZRI6) | 0.0358 | 0.14 | 0.17 | 0.0799
CAMKK2 C34 (UniProt Q96RR4) | 0.0657 | 0.428 | -0.201 | 0.143
CBARP C184 (UniProt Q8N350) | -0.0731 | 0.0949 | -0.0623 | -0.118
C11orf68 C214 (UniProt Q9H3H3) | -0.665 | -0.239 | -0.453 | -0.373
C2orf69 C43 (UniProt Q8N8R5) | -0.0353 | 0.122 | -0.016 | 0.16
CBR4 C55 (UniProt Q8N4T8) | -0.115 | -0.27 | -0.248 | -0.128
CAND1 C131 | -0.188 | 0.138 | -0.209 | 0.102
CADPS2 C218 | -0.107 | 0.0995 | -0.485 | -0.0145
BTF3 C22 (UniProt P20290) | 0.205 | -0.281 | 0.343 | -0.157
C15orf61 C84 | 0.206 | 0.16 | -0.108 | -0.0455
CBR4 C5 (UniProt Q8N4T8) | -0.0279 | 0.0255 | -0.0293 | -0.0816
BOD1L1 C1742 (UniProt Q8NFC6) | -0.348 | 0.0263 | 0.279 | 0.0719
C5orf22 C195 (UniProt Q49AR2) | -0.627 | -0.312 | 0.294 | -0.492
CBFA2T2 C261 (UniProt O43439) | -0.0478 | 0.0624 | 0.619 | 0.471
C2CD2L C115 (UniProt O14523) | -0.00249 | 0.128 | 0.0958 | 0.153
CBX4 C185 (UniProt O00257) | -0.0989 | -0.0203 | 0.115 | 0.0428
CALR C163 | 0.174 | -0.261 | -0.444 | -0.176
CACUL1 C362 (UniProt Q86Y37) | 0.173 | -0.0211 | 0.276 | -0.0504
CACNA2D2 C1083 | -0.188 | 0.118 | -0.292 | -0.0628
BRD7 C271 (UniProt Q9NPI1) | 0.183 | 0.481 | 0.686 | -0.00887
BSG C242 (UniProt P35613) | -0.159 | 0.0145 | 0.134 | 0.115
CAPZB C62 (UniProt P47756) | 0.194 | -0.179 | 0.201 | -0.167
CAND1 C1007 | 0.0896 | -0.0589 | -0.0657 | 0.0652
BPHL C225 (UniProt Q86WA6) | -0.0857 | 0.138 | -0.0771 | 0.0337

Two entries picked at random from those above, as already listed:
Target | log2 mean competition ratio ([1]; 50 µM) | log2 mean competition ratio ([1]; 200 µM) | log2 mean competition ratio ([2]; 50 µM) | log2 mean competition ratio ([2]; 200 µM)
CAND1 C1007 | 0.0896 | -0.0589 | -0.0657 | 0.0652
BTF3 C22 (UniProt P20290) | 0.205 | -0.281 | 0.343 | -0.157
